Series [1] can be described thus: Detection limits of the probes for HOCl. The note with it: 3.3σ/s from fluorescence titration with HOCl.
Series [2] is described as follows: Effect of DMSO on HOCl-induced probe oxidation. It counts as physicochemical. The note with it: 20 µM probe, 10 µM HOCl; for effect of DMSO on the fluorescence signal: 0.05% v/v (7 mM) DMSO. From the text: DMSO is a solvent well tolerated by cells and it is often used to dissolve organic compounds intended for cell culture studies. Most chemical libraries for HTS applications use DMSO as the solvent. However, DMSO reacts directly with HOCl with a second-order rate constant of 350 ± 40 M^−1s^−1 and it has been shown that it may interfere with oxidation of boronate probes by HOCl[49]. Thus, the influence of DMSO additive on the observed fluorescence signal generated in the reaction between HOCl and the studied probes was evaluated. In this experiment, the incubation mixtures contained the chosen probe (20 µM), phosphate buffer (50 mM, pH 7.4), and DMSO in the amounts between 0–5% v/v (0–0.7 M). The reaction with HOCl was initiated by the bolus addition of 1 mM sodium hypochlorite to obtain the final HOCl concentration of 10 µM. In the case of NBD-TM that reacts rapidly and stoichiometrically (1:1 ratio) with HOCl[44] about 10 µM of NBD-TSO was formed (Fig. 6). […] The presence of 0.5% v/v (0.07 M) or higher concentrations of DMSO was sufficient to completely scavenge HOCl and block the fluorescence increase.
Incubation mixtures contained 20 µM of a probe, 10 µM HOCl, 0–5% v/v (0–0.7 M) DMSO, and 50 mM phosphate buffer (pH 7.4). (Representative result of three independent experiments is shown. Points represent means ± S.D.)

Some entries repeat one wording, which the source may state once for all of them.

Turning to `Nc1ccc(Oc2ccc3c(-c4ccccc4C(=O)O)c4ccc(=O)cc-4oc3c2)cc1` [APF, 3’-(p-aminophenyl)-fluorescein], the “LOD (detection limit for HOCl)” value in series [1] is reported as 0.23 nM. In series [2], the “effect of DMSO on the fluorescence signal” value is listed as “strong inhibition of the fluorescence signal”.
Regarding 7-(p-aminophenyl)-coumarin [APC], the “LOD (detection limit for HOCl)” value in series [1] was 1.85 nM. For the same compound, the “effect of DMSO on the fluorescence signal” value in series [2] is on record as “strong inhibition of the fluorescence signal”.
Turning to `O=C(O)c1ccccc1-c1c2ccc(=O)cc-2oc2cc(B(O)O)ccc12` [FLBA, fluorescein boronic acid], the “LOD (detection limit for HOCl)” value in series [1] came to 6.11 nM. Moreover, in series [2], the “effect of DMSO on the fluorescence signal” value is “strong inhibition of the fluorescence signal”.
`O=[N+]([O-])c1ccc(N2CCSCC2)c2nonc12` [NBD-TM, 4-thiomorpholino-7-nitrobenz-2-oxa-1,3-diazole]: the “LOD (detection limit for HOCl)” value in series [1] was determined as 99.65 nM. In series [2] (0.05% (7 mM) or 0.1% v/v (14 mM) DMSO), the “effect of DMSO on HOCl-induced oxidation of the probe” value is “negligible effect”.
For `O=c1ccc2ccc(B(O)O)cc2o1` [CBA, coumarin boronic acid], the “LOD (detection limit for HOCl)” value in series [1] is recorded as 1.46 nM. For the same compound, in series [2], the “effect of DMSO on the fluorescence signal” value is reported as “strong inhibition of the fluorescence signal”.

For the origin of these results see publication PMC9166712, “Fluorescent probes for monitoring myeloperoxidase-derived hypochlorous acid: a comparative study” (Scientific Reports, 2022).
